At least one structure is not confirmed: it was looked up by name or label, or the drawing left a doubt.
Tested on: mice
Experiment: Transition-matrix analysis of behavior of drug-treated mice, coded by human observers (Figure 13)
Format: in vivo
Conditions: normalized transition matrix vs control mice
Protocol: Testing drugs several times and comparing the results can address replication. Significance is illustrated in Figure 13, where exemplary data is shown from an experiment in which mice were treated with one of the indicated drugs ensuing behavior was recorded and later coded by human observers. In the analysis of transition matrices, the average matrix of the drug treated mice was combined with the average matrix of the control mice. The control data was treated as the "population" data as it was expected to have very large numbers from mice treated with same vehicle as more and more experiments that require such vehicle are conducted.
Referring again to Figure 13, the average transition matrix was transformed as a z-score matrix based on the mean and standard error of the control matrix. In doing so, every drug transition (fd,i) subtracted the corresponding control transition (fc,i) and divided by the standard error (sc,i), as in zd,i=((fd,i)-(fc,i))/(sc,i) was obtained. Although this is just one possible way to normalize the data (e.g., student t-scores can also be calculated), it has some intuitive appeal, as the z-scores can now be read as distance from the control in standard-deviation units. Thus, in Figure 13, the first cell of the matrix corresponding to chlordiazepoxide (CDP), can be read as "CDP increased the number of rear-rear transitions more than 30 fold". […]

**Q.** `CNC1=Nc2ccc(Cl)cc2C(c2ccccc2)=[N+]([O-])C1` [CDP, chlordiazepoxide] was tested. Which “rearing overall (rear-x transitions, x any behavior)” value did it give?
**A.** The value was “increased overall”.

**Q.** What about the “transitions in which rearing was followed by rearing, directed burying, grooming and immobility” value (significant effects) of the same compound?
**A.** The value was “increased”.

From patent publication US20030083822A2, “SYSTEMS AND METHODS FOR […] INFORMATICS” (PsychoGenics, Inc., priority 2001, published 2003)
